Data as given in PubChem BioAssay AID504793 (Drosophila RNAi Screening Center, 2011)
Aim: 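Whole-genome screen for parts of the DNA damage checkpoint at G2/M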 (primary screen). Cell system: Drosophila S2R+ cells. Reagent: long dsRNA against Drosophila genes, about 0.25 µg dsRNA per well. Timing: 4 days of dsRNA, then 4 hours of drug before read-out. Challenge: doxorubicin 0.5 µM for 4 hours to cause double-strand breaks, in cells also given a low, harmless dose of dsRNA against nbs to sensitise the assay. Read-out: 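Mitotic index as the number of phospho-histone H3-positive cells in each well following doxorubicin, given as raw counts without normalisation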. Reading the numbers: mitotic cells: higher = more cells in mitosis, weaker G2 arrest. Hit rule: 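Genes are called active only when high mitotic counts were reproduced with independent dsRNAs and mitosis was checked for delay without damage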. Meaning of the calls: active = confirmed in follow-up tests; inactive = not confirmed.
The screen tested about 23,000 reagents; shown is a random part of those that have a named target and a result. Over the whole deposit, 62 (0.27%) are marked active. 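Calls come from follow-up tests whose scores are not deposited, so confirmed genes may have low counts here; counts are not normalised per plate.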 Raw values are not corrected between plates. Names joined by + are all predicted targets of the reagent. No sequences are given here.

gene	dsRNA	mitotic cells, replicate 1	outcome
CG4741 (GeneID 37939)	DRSC04485	6	inactive
CG4741 (GeneID 37939)	DRSC25673	9	inactive
bumpel (GeneID 41368)	DRSC16100	3	inactive
Gclc (GeneID 53581)	DRSC18666	14	inactive
Acbp5 (GeneID 39005)	DRSC10548	9	inactive
CG17652 (GeneID 33353)	DRSC00511	4	inactive
Chsy (GeneID 32497)	DRSC20175	10	inactive
Chsy (GeneID 32497)	DRSC20176	10	inactive
CG13786 (GeneID 34006)	DRSC02289	3	inactive
CG13786 (GeneID 34006)	DRSC27762	4	inactive
CG31465 (GeneID 42577)	DRSC16090	4	inactive
CG31465 (GeneID 42577)	DRSC26353	6	inactive
CG4459 (GeneID 42377)	DRSC15582	6	inactive
CG2247 (GeneID 32111)	DRSC19844	8	inactive
CG13002 (GeneID 32681)	DRSC19521	12	inactive
CG13002 (GeneID 32681)	DRSC29478	4	inactive
CG7271 + term	DRSC30034	12	inactive
CG15198 (GeneID 32065)	DRSC19645	6	inactive
Hex-A (GeneID 45875)	DRSC18259	8	inactive
Hex-A (GeneID 45875)	DRSC25354	2	inactive
CG43736 + CG33692 (retired record)	DRSC18370	15	inactive
CG43736 + CG33692 (retired record)	DRSC18371	17	inactive
CG43736 + CG33692 (retired record)	DRSC27351	3	inactive
Gld2 (GeneID 42602)	DRSC23037	16	inactive
Gld2 (GeneID 42602)	DRSC27759	6	inactive
DZIP1 (GeneID 42921)	DRSC14620	8	inactive
CG11109 (GeneID 40507)	DRSC11633	11	inactive
CG3246 (GeneID 33564)	DRSC00584	5	inactive
ATPsynE (GeneID 41745)	DRSC15476	11	inactive
ATPsynE (GeneID 41745)	DRSC30103	1	inactive
Galphai (GeneID 38765)	DRSC11168	6	inactive
Galphai (GeneID 38765)	DRSC28521	12	inactive
RpS3 (GeneID 42761)	DRSC16838	10	inactive
CG14756 (GeneID 35798)	DRSC06491	6	inactive
CG14756 (GeneID 35798)	DRSC24808	4	inactive
fzr2 (GeneID 37808)	DRSC04280	5	inactive
Nmdar2 (GeneID 31107)	DRSC18183	13	inactive
Nmdar2 (GeneID 31107)	DRSC18511	11	inactive
Nmdar2 (GeneID 31107)	DRSC18569	8	inactive
LysD + LysC (retired record)	DRSC08674	3	inactive
LysD + LysC (retired record)	DRSC22743	16	inactive
CG15578 (GeneID 50379)	DRSC18066	11	inactive
CG17493 (GeneID 3355126)	DRSC03798	6	inactive
CG13481 (GeneID 39579)	DRSC10023	8	inactive
CG13481 (GeneID 39579)	DRSC29353	9	inactive
Vha68-3 (GeneID 34695)	DRSC02809	11	inactive
Vha68-3 (GeneID 34695)	DRSC25742	3	inactive
Yeti (GeneID 7354404)	DRSC21138	60	active
CG13230 (GeneID 50237)	DRSC06350	4	inactive
CG13230 (GeneID 50237)	DRSC26778	7	inactive
Tsp42Ec (GeneID 35612)	DRSC06192	5	inactive
Tsp42Ec (GeneID 35612)	DRSC26768	4	inactive
Pi4KIIalpha (GeneID 40670)	DRSC12322	5	inactive
Pi4KIIalpha (GeneID 40670)	DRSC12323	2	inactive
Pi4KIIalpha (GeneID 40670)	DRSC29095	1	inactive
CG1513 (GeneID 36028)	DRSC05194	11	inactive
CG1513 (GeneID 36028)	DRSC06553	7	inactive
CG1513 (GeneID 36028)	DRSC06554	6	inactive
gammaSnap1 (GeneID 37842)	DRSC04686	4	inactive
gammaSnap1 (GeneID 37842)	DRSC28381	4	inactive
Mi-2 (GeneID 40170)	DRSC11222	10	inactive
Mi-2 (GeneID 40170)	DRSC25055	8	inactive
fid (GeneID 43148)	DRSC14885	4	inactive
fid (GeneID 43148)	DRSC16464	13	inactive
fid (GeneID 43148)	DRSC23529	19	inactive
fid (GeneID 43148)	DRSC25230	3	inactive
CAH6 (GeneID 43701)	DRSC15505	10	inactive
app (GeneID 39399)	DRSC09159	17	inactive
app (GeneID 39399)	DRSC10246	9	inactive
app (GeneID 39399)	DRSC10526	1	inactive
app (GeneID 39399)	DRSC25682	5	inactive
Ugt35B1 (GeneID 41333)	DRSC16893	3	inactive
Ugt35B1 (GeneID 41333)	DRSC27518	12	inactive
mRpS14 (GeneID 117414)	DRSC19444	5	inactive
CG7218 (GeneID 42165)	DRSC16216	3	inactive
CG7218 (GeneID 42165)	DRSC27550	4	inactive
Pif2 (GeneID 170876)	DRSC12525	5	inactive
Pif2 (GeneID 170876)	DRSC26251	8	inactive
Ccn (GeneID 39972)	DRSC09504	7	inactive
Ccn (GeneID 39972)	DRSC09506	12	inactive
Ccn (GeneID 39972)	DRSC10062	4	inactive
Ccn (GeneID 39972)	DRSC10063	10	inactive
CG31998 (GeneID 43774)	DRSC17137	24	inactive
CG31998 (GeneID 43774)	DRSC17138	14	inactive
CG5934 (GeneID 43289)	DRSC15922	10	inactive
CG5934 (GeneID 43289)	DRSC27431	7	inactive
CG13001 (GeneID 32684)	DRSC24970	4	inactive
Obsc (GeneID 3346201)	DRSC04301	5	inactive
Obsc (GeneID 3346201)	DRSC04302	5	inactive
Obsc (GeneID 3346201)	DRSC04303	6	inactive
Obsc (GeneID 3346201)	DRSC04430	7	inactive
Obsc (GeneID 3346201)	DRSC22422	5	inactive
Grasp65 (GeneID 40177)	DRSC10917	3	inactive
Grasp65 (GeneID 40177)	DRSC28969	4	inactive
fig (GeneID 43511)	DRSC16270	8	inactive
fig (GeneID 43511)	DRSC24735	9	inactive
CG17195 (GeneID 43113)	DRSC15188	13	inactive
CG17195 (GeneID 43113)	DRSC26415	11	inactive
Sry-delta (GeneID 43572)	DRSC24964	1	inactive
E(spl)m3-HLH (GeneID 43156)	DRSC23160	8	inactive
E(spl)m3-HLH (GeneID 43156)	DRSC28511	3	inactive
CG1827 (GeneID 35989)	DRSC06719	2	inactive
Sil1 (GeneID 43034)	DRSC14242	6	inactive
UBL3 (GeneID 32541)	DRSC23292	18	inactive
Hsp70Aa + Hsp70Bb + Hsp70Ba + 3 more	DRSC15380	9	inactive
Mettl3 (GeneID 42844)	DRSC15921	9	inactive
Mettl3 (GeneID 42844)	DRSC27423	7	inactive
mxc (GeneID 31869)	DRSC17819	11	inactive
Prdm13 (GeneID 38713)	DRSC09970	8	inactive
CG11158 (GeneID 32327)	DRSC19389	7	inactive

In a second layout: 5 of the entries above
Pi4KIIalpha (GeneID 40670) [DRSC29095]: mitotic cells, replicate 1 = 1; outcome = inactive
CG1513 (GeneID 36028) [DRSC05194]: mitotic cells, replicate 1 = 11; outcome = inactive
CG1513 (GeneID 36028) [DRSC06553]: mitotic cells, replicate 1 = 7; outcome = inactive
CG1513 (GeneID 36028) [DRSC06554]: mitotic cells, replicate 1 = 6; outcome = inactive
gammaSnap1 (GeneID 37842) [DRSC04686]: mitotic cells, replicate 1 = 4; outcome = inactive
